Laboratory results reported in US20230183333A1, “COMPOSITION FOR THE TREATMENT OF PHILADELPHIA CHROMOSOME-POSITIVE ACUTE LYMPHOBLASTIC LEUKEMIA” (priority 2020, published 2023).
For at least one compound, name, drawing or mass did not settle the structure.

Experiments:
[1] = test system: BCR-ABL1 and JAK2; settings: dasatinib and ruxolitinib combined; cited from earlier work
[2] = test system: BCR-ABL1 transformed cells; assay: CXCL12-induced Ca2+ flux; format: cell-based, mouse; settings: CXCL12 100 ng/ml
Experimental: A total of 1×10^6 cells were loaded with Indo-1 AM (Invitrogen) and used for Ca^2+ analyses^62. 100 ng/m1 of CXCL12 was used for stimulation

SMILES	leukemia engraftment and survival [1]	CXCL12-induced Ca2+ response [2]	concentration for inhibition of CXCL12-induced Ca2+ response compared with imatinib [2]
N#CC[C@H](C1CCCC1)n1cc(-c2ncnc3[nH]ccc23)cn1 [ruxolitinib]	reduced leukemia engraftment and prolonged survival	–	–
Cc1nc(Nc2ncc(C(=O)Nc3c(C)cccc3Cl)s2)cc(N2CCN(CCO)CC2)n1 [dasatinib]	–	blocked the CXCL12-induced Ca^2+ response	effective inhibition at much lower concentrations than imatinib
